{
  "source": "patent US6740673B2",
  "about": "“Quarternary ammonium compounds” (UCB Farchim SA, priority 1998, dated 2004)",
  "system": "cough responses induced by citric acid (1M) aerosol in conscious guinea-pigs",
  "experiment": "Antitussive activity against citric acid aerosol-induced cough in conscious guinea-pigs",
  "format": "in vivo, guinea-pig (male albino Dunkin-Hartley)",
  "conditions": "aerosol pre-treatment at 10.0 mg/ml immediately before citric acid (1M) exposure; time to first recorded cough",
  "description": "The following method was one of the general methods available to determine the antitussive activity of the compounds of the present invention.\nMale albino Dunkin-Hartley strain guinea-pigs (weight 300-400 g) were supplied by Harlan UK Ltd., Bicester, Oxon, UK.\nThe method used was modified from that described by Adcock J. J., Schneider C. and Smith T. W., “Effects of Morphine and a Novel Opioid Pentapeptide BW443C, on Cough, Nociception and Ventilation in the Unanaesthetized Guinea-pig”, Br. J. Pharmacol., 93, 93-100 (1988). […]\nCylinder air was introduced into the exposure chamber at a flow rate of 1 liter/min, maintained by a needle valve and monitored by a rotameter. […]\nCough responses were induced by exposure to an aerosol of citric acid (1M) for 10 minutes. Animals were continuously monitored by trained observer, and the number of coughs were counted during a 15 minute period from commencement of the citric acid aerosol administration. […]\nThe three types of response were differentiated primarily by sound and visual observation. […] Data recorded for individual guinea-pigs on the Poh-Ne-Mah system was stored on an optical disk. Each cough was marked on the Grass polygraph paper trace, and from these record numbers, frequency and time of onset of coughs were determined. […]\nQuantities of drugs were weighed out and dissolved in a vehicle. […]",
  "note": "At least one structure is not confirmed: it was looked up by name or label, or the drawing left a doubt.",
  "data": [
    {"smiles": "C[N+](C)(CC(=O)Nc1ccccc1)CC(=O)N1CCc2ccccc21.[Cl-]", "note": "[Compound 2, N-[(1-Indolinyl)carbonylmethyl]-N-(phenylcarbamoylmethyl) dimethylammonium chloride]", "values": [
      {"measurement": "prolongation of mean latency of cough onset", "result": "four fold"}
    ]}
  ]
}
